Measured values: PMC12136849
These are yes or no findings as the source states them, for the method shown. Binding seen in cells or lysates may run through a third protein. Some binding calls cover weakened binding; strength is not graded here.

By UniProt entry, the sequences of proteins in these tests, tags left out.
UniProt Q8R4B8: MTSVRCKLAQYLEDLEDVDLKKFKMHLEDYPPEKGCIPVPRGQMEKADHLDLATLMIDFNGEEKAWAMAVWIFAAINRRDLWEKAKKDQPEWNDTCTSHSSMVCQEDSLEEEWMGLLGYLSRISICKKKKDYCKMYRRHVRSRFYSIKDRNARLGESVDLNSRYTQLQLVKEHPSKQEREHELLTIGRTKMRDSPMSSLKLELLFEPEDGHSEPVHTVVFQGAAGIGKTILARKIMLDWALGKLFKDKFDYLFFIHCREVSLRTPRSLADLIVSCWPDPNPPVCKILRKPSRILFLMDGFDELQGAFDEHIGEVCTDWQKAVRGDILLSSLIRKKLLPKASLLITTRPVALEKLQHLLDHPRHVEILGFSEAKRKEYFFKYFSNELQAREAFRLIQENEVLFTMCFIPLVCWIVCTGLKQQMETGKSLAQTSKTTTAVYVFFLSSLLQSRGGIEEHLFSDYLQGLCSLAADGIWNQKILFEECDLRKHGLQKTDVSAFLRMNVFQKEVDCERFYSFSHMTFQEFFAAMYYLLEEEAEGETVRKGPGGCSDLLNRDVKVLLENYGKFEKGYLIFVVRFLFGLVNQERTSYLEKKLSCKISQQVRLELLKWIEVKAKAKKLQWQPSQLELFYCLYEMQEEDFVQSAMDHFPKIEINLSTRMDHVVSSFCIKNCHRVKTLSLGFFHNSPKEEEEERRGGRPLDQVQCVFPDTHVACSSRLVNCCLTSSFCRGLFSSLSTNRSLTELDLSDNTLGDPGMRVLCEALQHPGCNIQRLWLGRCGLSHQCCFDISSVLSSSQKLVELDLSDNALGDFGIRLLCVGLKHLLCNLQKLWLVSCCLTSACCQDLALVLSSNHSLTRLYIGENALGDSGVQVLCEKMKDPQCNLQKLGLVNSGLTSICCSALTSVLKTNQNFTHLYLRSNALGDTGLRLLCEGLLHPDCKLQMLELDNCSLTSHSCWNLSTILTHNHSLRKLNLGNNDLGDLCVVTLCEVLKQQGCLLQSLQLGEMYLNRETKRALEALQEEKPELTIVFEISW

T1: tripartite motif-containing protein 21 (Trim21) (mouse (endogenous in mTECs)) (UniProt Q62191)
T1 sequence: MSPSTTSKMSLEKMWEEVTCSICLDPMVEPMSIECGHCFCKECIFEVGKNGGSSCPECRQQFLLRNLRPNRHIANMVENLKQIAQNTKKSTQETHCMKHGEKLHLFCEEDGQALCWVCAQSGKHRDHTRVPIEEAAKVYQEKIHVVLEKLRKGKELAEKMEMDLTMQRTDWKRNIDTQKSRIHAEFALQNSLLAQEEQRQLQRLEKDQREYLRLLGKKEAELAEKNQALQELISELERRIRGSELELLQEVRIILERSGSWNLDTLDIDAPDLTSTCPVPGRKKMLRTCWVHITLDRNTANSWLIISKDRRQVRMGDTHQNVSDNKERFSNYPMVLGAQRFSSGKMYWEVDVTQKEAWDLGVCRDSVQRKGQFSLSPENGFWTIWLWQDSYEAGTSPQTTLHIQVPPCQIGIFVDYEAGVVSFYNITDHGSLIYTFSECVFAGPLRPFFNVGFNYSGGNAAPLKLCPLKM

B1: gasdermin D (Gsdmd) (protein, UniProt Q9D8T2 1-487)
chain: MPSAFEKVVKNVIKEVSGSRGDLIPVDSLRNSTSFRPYCLLNRKFSSSRFWKPRYSCVNLSIKDILEPSAPEPEPECFGSFKVSDVVDGNIQGRVMLSGMGEGKISGGAAVSDSSSASMNVCILRVTQKTWETMQHERHLQQPENKILQQLRSRGDDLFVVTEVLQTKEEVQITEVHSQEGSGQFTLPGALCLKGEGKGHQSRKKMVTIPAGSILAFRVAQLLIGSKWDILLVSDEKQRTFEPSSGDRKAVGQRHHGLNVLAALCSIGKQLSLLSDGIDEEELIEAADFQGLYAEVKACSSELESLEMELRQQILVNIGKILQDQPSMEALEASLGQGLCSGGQVEPLDGPAGCILECLVLDSGELVPELAAPIFYLLGALAVLSETQQQLLAKALETTVLSKQLELVKHVLEQSTPWQEQSSVSLPTVLLGDCWDEKNPTWVLLEECGLRLQVESPQVHWEPTSLIPTSALYASLFLLSSLGQKPC
B2: Caspase-1 (enzyme, UniProt P29452 1-402)
chain: MADKILRAKRKQFINSVSIGTINGLLDELLEKRVLNQEEMDKIKLANITAMDKARDLCDHVSKKGPQASQIFITYICNEDCYLAGILELQSAPSAETFVATEDSKGGHPSSSETKEEQNKEDGTFPGLTGTLKFCPLEKAQKLWKENPSEIYPIMNTTTRTRLALIICNTEFQHLSPRVGAQVDLREMKLLLEDLGYTVKVKENLTALEMVKEVKEFAACPEHKTSDSTFLVFMSHGIQEGICGTTYSNEVSDILKVDTIFQMMNTLKCPSLKDKPKVIIIQACRGEKQGVVLLKDSVRDSEEDFLTDAIFEDDGIKKAHIEKDFIAFCSSTPDNVSWRHPVRGSLFIESLIKHMKEYAWSCDLEDIFRKVRFSFEQPEFRLQMPTADRVTLTKRFYLFPGH

Molecular target: T1, tripartite motif-containing protein 21 (Trim21) (mouse (endogenous in mTECs))
Experiment: co-IP; NP40 lysates of LPS-induced mTECs, with or without overexpression of Trim21 (or ΔPRY/SPRY); rabbit anti-Trim21 antibody, rotation at 4 °C for 16 h; protein A/G magnetic beads; western blot

binding	Molecule
no binding	Nlrp3 (from UniProt Q8R4B8 1-1033) (other; other documents disagree on this pair)
binds	B1
no binding	B2
